Assay results published in PubChem BioAssay AID1671190 (National Center for Advancing Translational Sciences (NCATS), 2021).
The whole screen tested about 580,000 compounds, of which about 6,100 (1.1%) were called active. Inconclusive results, whose numbers are uncertain, are shown with a selection of clear calls. Calls come from the whole dose curve; as a rule, active = well fitted inhibition curve with a large enough effect; inconclusive = small, poorly fitted or top-dose-only effect, or another doubt; inactive = no such curve, though single readings can be large or run the other way. Potencies beside an inconclusive call are fits to weak or partial responses and may not hold up.

Chains of the proteins cited; added tags and fusions are not shown. Lines headed by an entry give the natural chain unless they say otherwise; changes in a name come on top.
UniProt P18054: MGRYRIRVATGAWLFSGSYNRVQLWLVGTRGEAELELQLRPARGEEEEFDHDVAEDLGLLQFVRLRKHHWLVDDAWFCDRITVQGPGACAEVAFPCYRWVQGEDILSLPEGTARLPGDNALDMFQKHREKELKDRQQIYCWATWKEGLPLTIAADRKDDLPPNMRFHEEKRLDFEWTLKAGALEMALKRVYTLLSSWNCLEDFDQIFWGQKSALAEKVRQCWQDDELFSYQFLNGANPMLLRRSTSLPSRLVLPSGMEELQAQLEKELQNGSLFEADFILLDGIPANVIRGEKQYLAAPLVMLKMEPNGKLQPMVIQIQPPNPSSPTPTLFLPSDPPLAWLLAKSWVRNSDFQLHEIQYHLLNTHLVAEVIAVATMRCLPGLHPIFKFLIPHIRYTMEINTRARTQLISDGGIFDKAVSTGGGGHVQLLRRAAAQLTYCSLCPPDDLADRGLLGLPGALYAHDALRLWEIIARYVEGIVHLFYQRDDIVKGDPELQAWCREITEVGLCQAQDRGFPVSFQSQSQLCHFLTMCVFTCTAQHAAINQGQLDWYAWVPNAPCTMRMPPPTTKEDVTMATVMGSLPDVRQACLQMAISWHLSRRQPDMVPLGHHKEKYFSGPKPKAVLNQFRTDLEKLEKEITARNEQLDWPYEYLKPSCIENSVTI

molecular target: Polyunsaturated fatty acid lipoxygenase ALOX12 (Homo sapiens) (UniProt P18054); assay: Primary qHTS assay for inhibitors of human arachidonate 12S-lipoxygenase (ALOX12): Round 2; conditions: purified 12hLO, xylenol orange hydroperoxide absorbance; activity change, negative = inhibition: at 108 µM (top of the series) unless noted
How it was run: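 Purified human 12hLO at 150 nM in 25 mM Hepes, 0.01% Triton X-100, pH 7.0, preincubated 15 min at room temperature with compound. Reaction started with 40 uM arachidonic acid, 30 min at room temperature. Hydroperoxide measured by Fe-xylenol orange, 573/405 nm absorbance ratio.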
% is set by controls: 0 for no effect and ±100 for the full control effect; potency is the fitted concentration of half-maximal effect.

Row | SMILES | Potency | activity change, negative = inhibition
1 | CCc1ccccc1NC(=O)Cc1c(C(=O)O)[nH]c2ccc(Cl)cc12 | inconclusive: 50.1 µM [inhibitor, partial curve, poor fit] | 
2 | O=C(Nc1nc(-c2ccc(F)cc2)cs1)C1CCN(C(=O)c2ccc(F)cc2)CC1 | inconclusive: 44.7 µM [inhibitor, partial curve] | 
3 | CC(=O)c1ccc(-c2cnc3c(NC=O)cc(-c4ccc(C(=O)NC5CC5)cc4)cn23)cc1 | inactive | 
4 | C/C(=N/O)c1ccccn1 | inactive | 
5 | O=C(CNC1CCCCC1)NCC1(c2ccccc2)CCCC1 | inconclusive: 44.7 µM [inhibitor, partial curve, poor fit] | 
6 | CCc1cccc(N=c2c([N+](=O)[O-])nn(-c3ccc(Cl)cc3)n2O)c1 | inactive | 
7 | Cc1ccc(S(=O)(=O)N2CCC(=O)N([C@H](COCc3cccc(Cl)c3)C(C)C)CC2)cc1 | inconclusive: 44.7 µM [inhibitor, partial curve] | 
8 | Brc1c(CSc2nc3ccccc3s2)nc2ncccn12 | inactive | 
9 | Cc1ccccc1C(=O)N(C)[C@H]1C[C@H]2c3[nH]c4c(-c5ccc6c(c5)OCO6)cccc4c3CCN2C[C@H]1[C@H](C)O | inconclusive: 25.1 µM [inhibitor, partial curve, poor fit] | 
10 | CCc1ccc(NC(=O)c2ccc3c(c2)C(=O)N(Cc2ccco2)C3=O)cc1 | inconclusive: 44.7 µM [inhibitor, partial curve, poor fit] | 
11 | COc1ccc(-c2cc3ccccc3n2CC(O)CN2CCC(C)CC2)cc1 (configuration not stated) | inconclusive: 0.355 µM [inhibitor, full curve, poor fit] | 
12 | COc1cccc(C(=O)C(=O)c2cccc(OC)c2OC)c1OC | inactive | 
13 | CCCC(C)NC(=O)c1cnn(-c2ccccc2F)c1-n1cccc1 (configuration not stated) | inactive | 
14 | COc1cc(-c2c(NC(=O)c3ccco3)oc3c(C)cccc3c2=O)cc(OC)c1OC | inactive | 
15 | COc1cc(CCC(=O)Nc2ccc3oc(-c4ccc(C(C)C)cc4)cc(=O)c3c2)on1 | inconclusive: 5.01 µM [inhibitor, full curve, poor fit] | 
16 | Cc1cc(C)c(NC(=O)C2CC(=O)N(Cc3ccccc3)C2)c(C)c1 (configuration not stated) | inactive | 
17 | Cc1ccc(-c2csc(N/N=C/c3ccco3)n2)cc1 | inconclusive: 28.2 µM [inhibitor, partial curve] | 
18 | C#CCOCCOCCOCCNc1nc(N2CCN(C(=O)Cn3cc(CCO)nn3)CC2)nc(N2CCN(C(=O)[C@H](C(C)C)n3cc(CCO)nn3)CC2)n1 | inconclusive: 17.8 µM [inhibitor, partial curve, poor fit] | 
19 | O=C(N/N=C/c1ccc(Cl)c([N+](=O)[O-])c1)c1ccc2c(c1)OCCO2 | inactive | 
20 | COc1ccc(C)cc1-n1nnnc1SCc1csc(C)n1 | inactive | 
21 | Cc1ccc(NC(=S)N2CCN(c3ncccn3)CC2)cc1C | inconclusive: 31.6 µM [inhibitor, partial curve, poor fit] | 
22 | CCOC(=O)C1=C(NC(=S)NC(=O)c2ccccc2)c2ccccc2CC1(C)C | active: 22.4 µM | 
23 | Oc1ccccc1C=NC1=NN(c2cccc(C(F)(F)F)c2)CC1 | inconclusive: 39.8 µM [inhibitor, partial curve, poor fit] | 

Row | SMILES | Potency | activity change, negative = inhibition
24 | O=C1c2oc3ccccc3c(=O)c2C(c2cccc(O)c2)N1c1ccccn1 (configuration not stated) | inconclusive: 50.1 µM [inhibitor, single point] | 
25 | CCC1CCCCN1CCCNS(=O)(=O)c1ccc2c(c1)oc(=O)n2C (configuration not stated) | inactive | 
26 | O=c1nc(-c2ccccc2Cl)c2cc(F)ccc2[nH]1 | inactive | 
27 | COc1ccc(Cl)cc1NC(=S)Nc1cccc(C)c1 | inconclusive: 50.1 µM [inhibitor, partial curve, poor fit] | 
28 | CN(CC(=O)NCCc1ccccc1)CC(=O)Nc1cccc(F)c1 | inactive | 
29 | COc1cccc(-c2cc3nc(C)cc(N4CCN(C(=O)c5ccoc5)CC4)n3n2)c1 | inactive | 
30 | CNC(=O)c1c(NC(=O)c2cccc(C)c2)sc2c1CCC2 | inconclusive: 39.8 µM [inhibitor, partial curve, poor fit] | 
31 | Cc1ccc(NC(=O)C(Cc2ccccc2)NS(=O)(=O)c2cccc3nsnc23)c(C)c1 (configuration not stated) |  | inconclusive: -30.6% [inhibitor]
32 | CCOc1ccc([C@@H]2CC=C(C(=O)O)[C@H](c3ccc(Cl)cc3)N2S(=O)(=O)c2ccc(C)cc2)cc1 | inconclusive: 79.4 µM [inhibitor, partial curve, poor fit] | 
33 | CC(=O)N1CCN(C(=O)C[C@@H]2C[C@@H](C(C)C)[C@H](CNC(=O)C3CC3)C=C2C)CC1 | inconclusive: 112 µM [inhibitor, partial curve, poor fit] | 
34 | O=C(O)C(c1c[nH]c2cc(CO)ccc12)N1CCN(CCOc2ccc(Cl)cc2)CC1 (configuration not stated) | inconclusive: 28.2 µM [inhibitor, partial curve, poor fit] | 
35 | Oc1ccc(C=NNc2nc3ccccc3s2)c(O)c1 | inactive | 
36 | Cc1nn(CC(C)C)c2sc(C(=O)N3CCN(S(=O)(=O)c4cc(F)ccc4F)CC3)cc12 | inactive | 
37 | CCOc1cc(CNCc2ccccc2)ccc1OCc1ccc(Cl)cc1 | inconclusive: 79.4 µM [inhibitor, single point] | 
38 | COc1ccc(Cc2nc3c4c(ncn3n2)Oc2ccc3ccccc3c2C4c2ccc(OC)c(OC)c2)cc1 (configuration not stated) | inactive | 
39 | [C-]#[N+][C@]12C(=O)[C@H](C=C(Cl)[C@@]1(C)C=C)C(C)(C)[C@H]1C(=O)N(C)c3cccc2c31 | inconclusive: 126 µM [inhibitor, single point] | 
40 | CCc1ccc(-c2nn(CC(=O)NC3CCCCC3)c3c2cnc2ccc(OC)cc23)cc1 | inconclusive: 112 µM [inhibitor, partial curve, poor fit] | 
41 | CCOC(=O)C1CCN(C(=O)c2cn(-c3ccccc3)nc2-c2ccc(Br)cc2)CC1 | inactive | 
42 | COc1ccccc1CNc1ncc(-c2ccc(F)cc2)n1C | inconclusive: 0.562 µM [inhibitor, full curve, poor fit] | 
43 | COc1ccc(CCNC(=O)c2ccc([N+](=O)[O-])cc2)cc1 | inactive | 
44 | CN1CCN(c2ncc3ncc(=O)n(CCc4ccccc4)c3n2)CC1 | inconclusive: 35.5 µM [inhibitor, partial curve, poor fit] | 
45 | CCO[C@@H](Cc1ccc(OCCc2ccc(OS(C)(=O)=O)cc2)cc1)C(=O)O | inconclusive: 39.8 µM [inhibitor, partial curve, poor fit] | 
46 | O=C(Nc1ccc(-c2noc(/C=C/c3ccccc3)n2)cc1)c1ccc(Br)o1 | active: 28.2 µM | 

Row | SMILES | Potency | activity change, negative = inhibition
47 | COc1ccc(NC(=O)CSC2=Nc3ccccc3C3=NC(CC(=O)NCc4ccc(F)cc4)C(=O)N23)cc1 (configuration not stated) | inactive | 
48 | Cc1ccc(Cl)cc1NC(=O)C(=O)NCCc1sc(-c2ccc(F)cc2)nc1C | inactive | 
49 | COc1ccc(C(Nc2cc(C)ccn2)c2ccc3ccc(C)nc3c2O)cc1 (configuration not stated) | inconclusive: 25.1 µM [inhibitor, partial curve, poor fit] | 
50 | CCOc1ccc2c(=O)c(Oc3ccccc3Br)c(C)oc2c1 | inactive | 
51 | COc1cccc(NC(=O)/C(C#N)=C\c2cn(Cc3ccc(Cl)cc3)c3ccccc23)c1 | inconclusive: 39.8 µM [inhibitor, partial curve] | 
52 | CSc1nc(C)c(CCC(=O)NC(c2ccc(Cl)cc2)C(C)C)c(C)n1 (configuration not stated) | inconclusive: 100 µM [inhibitor, single point] | 
53 | O=C(COc1ccc(/C=N/NS(=O)(=O)c2ccccc2)cc1)Nc1ccccc1 | inactive | 
54 | O=C(Nc1nc(-c2ccccn2)cs1)c1cc(S(=O)(=O)N2CCOCC2)ccc1F | inconclusive: 44.7 µM [inhibitor, partial curve, poor fit] | 
55 | FC(F)Oc1ccc(-c2csc(Cc3nnc4n3CCCCC4)n2)cc1 | inconclusive: 31.6 µM [inhibitor, partial curve, poor fit] | 
56 | O=C(O)CNS(=O)(=O)c1cccnc1 | inconclusive: 4.47 µM [inhibitor, full curve, poor fit] | 
57 | C=CCc1ccccc1OCC(O)CN1CCN(CCN2C(=O)c3cccc4cccc(c34)C2=O)CC1 (configuration not stated) | inconclusive: 44.7 µM [inhibitor, partial curve, poor fit] | 
58 | COc1ccc2cc(C(=O)NC3CCS(=O)(=O)C3)[nH]c2c1 (configuration not stated) | inactive | 
59 | COC(=O)C1=C(C)N(Cc2ccccc2)C(=NCC2CC2)N[C@H]1c1ccccc1 | inconclusive: 50.1 µM [inhibitor, single point] | 
60 | CCCSc1nc(N2CCOCC2)c2c(c1C#N)CCCC2 | inactive | 
61 | CN(C1CCc2ccccc2C1)[S+](=O)([O-])c1cccs1 (configuration not stated) | inactive | 
62 | COc1ccc(CNC(=O)Cn2c(=O)oc3cc(S(=O)(=O)N4CCCC4)ccc32)cc1 | inactive | 
63 | COC(=O)c1sc(S(=O)(=O)NC(Cc2ccccc2)C(=O)O)c(C(=O)OC)c1C (configuration not stated) | inconclusive: 4.47 µM [inhibitor, full curve, poor fit] | 
64 | Cc1ccc(CN2CC(C(=O)Nc3ccc4c(C)cc(=O)oc4c3)CC2=O)cc1 (configuration not stated) | inconclusive: 50.1 µM [inhibitor, partial curve, poor fit] | 
65 | O=C(Nc1ccc(C(=O)O)cc1)/C(=C\c1ccccc1)NC(=O)c1ccc(Br)cc1 | inconclusive: 126 µM [inhibitor, partial curve, poor fit] | 
66 | O=S(Cc1cccc(F)c1)Cc1coc(-c2cccc(F)c2)n1 (configuration not stated) | inconclusive: 39.8 µM [inhibitor, partial curve, poor fit] | 
67 | O=C(NNC(=S)NC(=O)c1sc2ccccc2c1Cl)c1ccc(Cl)cc1 | inconclusive: 44.7 µM [inhibitor, partial curve, poor fit] | 

Compounds listed so far that have a nitro group on carbon:
Row | SMILES | Potency | activity change, negative = inhibition
6 | CCc1cccc(N=c2c([N+](=O)[O-])nn(-c3ccc(Cl)cc3)n2O)c1 | inactive | 
19 | O=C(N/N=C/c1ccc(Cl)c([N+](=O)[O-])c1)c1ccc2c(c1)OCCO2 | inactive | 
43 | COc1ccc(CCNC(=O)c2ccc([N+](=O)[O-])cc2)cc1 | inactive | 
